According to PubChem BioAssay AID1671190 (National Center for Advancing Translational Sciences (NCATS), 2021):
Screen size: about 580,000 compounds; about 6,100 (1.1%) were called active. Inconclusive means that the source gave no clear call. Such entries were picked first, then a sample of the others. The call rests on the fitted dose curve; in most records, active means well fitted inhibition curve with a large enough effect; inconclusive means small, poorly fitted or top-dose-only effect, or another doubt; inactive means no such curve, though single readings can be large or run the other way. Potencies of inconclusive entries are doubtful fits and often do not repeat.

By UniProt entry, the sequences of proteins in these tests, tags left out. Where a name states a change or a piece, a line headed by the entry shows the natural chain unless it says otherwise.
UniProt P18054: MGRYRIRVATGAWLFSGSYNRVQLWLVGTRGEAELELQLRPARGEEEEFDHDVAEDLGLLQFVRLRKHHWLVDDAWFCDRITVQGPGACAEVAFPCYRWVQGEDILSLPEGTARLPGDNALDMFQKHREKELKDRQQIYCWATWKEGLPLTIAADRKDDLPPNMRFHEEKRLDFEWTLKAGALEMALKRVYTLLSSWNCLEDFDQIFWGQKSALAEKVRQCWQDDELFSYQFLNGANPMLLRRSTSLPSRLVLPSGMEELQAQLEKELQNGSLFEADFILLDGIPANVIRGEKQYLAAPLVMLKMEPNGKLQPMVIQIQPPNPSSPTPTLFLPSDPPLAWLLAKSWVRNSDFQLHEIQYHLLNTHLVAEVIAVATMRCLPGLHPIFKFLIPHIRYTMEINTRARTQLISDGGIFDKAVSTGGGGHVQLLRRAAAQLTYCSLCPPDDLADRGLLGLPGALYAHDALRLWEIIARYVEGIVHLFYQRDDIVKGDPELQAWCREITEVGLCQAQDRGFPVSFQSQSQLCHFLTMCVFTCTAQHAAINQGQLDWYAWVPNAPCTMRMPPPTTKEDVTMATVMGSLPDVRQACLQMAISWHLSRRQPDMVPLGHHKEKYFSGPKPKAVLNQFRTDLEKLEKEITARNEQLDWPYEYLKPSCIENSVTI

target: Polyunsaturated fatty acid lipoxygenase ALOX12 (Homo sapiens) (UniProt P18054); experiment: Primary qHTS assay for inhibitors of human arachidonate 12S-lipoxygenase (ALOX12): Round 2; details: purified 12hLO, xylenol orange hydroperoxide absorbance; activity change, negative = inhibition: at 108 µM (top of the series) unless noted
Summary of the method: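 Purified human 12hLO at 150 nM in 25 mM Hepes, 0.01% Triton X-100, pH 7.0, preincubated 15 min at room temperature with compound. Reaction started with 40 uM arachidonic acid, 30 min at room temperature. Hydroperoxide measured by Fe-xylenol orange, 573/405 nm absorbance ratio.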
On the % scale 0 is the no-effect control and ±100 the full control effect; potency means the concentration at half of the fitted maximal effect.

Row | Structure (SMILES) | Potency | activity change, negative = inhibition
1 | Cc1cccc(N2CCN(C(=O)CCS(=O)(=O)c3ccc(Br)cc3)CC2C)c1 (configuration not stated) | inconclusive: 50.1 µM [inhibitor, partial curve, poor fit] | –
2 | CSc1ccc(/C=C2\N=C(c3cccs3)OC2=O)cc1 | inconclusive: 70.8 µM [inhibitor, partial curve, poor fit] | –
3 | COc1ccc(CCNC(=O)c2coc3ccccc3c2=O)cc1 | inactive | –
4 | Cc1cc(=O)n(CC(=O)Nc2ccc(C)c(F)c2)c(N2CCc3ccccc3C2)n1 | inconclusive: 20 µM [inhibitor, full curve, poor fit] | –
5 | Cc1c(NC(=O)c2ccco2)cccc1-c1nc2cccnc2s1 | inactive | –
6 | O=C1CC(=C(c2ccccc2)c2ccccc2)C(=O)N1CCCN1CCN(c2cccc(Cl)c2)CC1 | inconclusive: 14.1 µM [inhibitor, partial curve] | –
7 | CC(NC(=O)c1sc2cc([N+](=O)[O-])ccc2c1Cl)C(C)(C)C (configuration not stated) | active: 31.6 µM | –
8 | O=C(Nc1cc(C(F)(F)F)ccc1C(=O)O)c1ccc(F)cc1F | inconclusive: 10 µM [inhibitor, full curve] | –
9 | O=C(Nc1ccc(Cl)cc1)c1cc(-c2cccs2)on1 | inconclusive: 89.1 µM [inhibitor, single point] | –
10 | Brc1ccc(/C=N/Nc2ccc3ccccc3n2)cc1 | inactive | –
11 | Cn1c(=O)[nH]c(=O)c2c1nc(CN1CCN(Cc3ccccc3)CC1)n2CCCO | inconclusive: 39.8 µM [inhibitor, partial curve, poor fit] | –
12 | O=C(CSc1ccccc1)Nc1ccc(-c2nc3ccccc3[nH]2)cc1 | inactive | –
13 | CC(C(=O)NCC1CCCO1)N(C(=O)c1snc(C(N)=O)c1N)c1cccc(F)c1 (configuration not stated) | inactive | –
14 | OC1(CN2CCN(c3nccs3)CC2)CNCCOC1 (configuration not stated) | active: 10 µM | –
15 | COc1ccc(C(=O)N=S2CCN(C(=O)c3ccc(Cl)cc3)CC2)cc1 | inconclusive: 100 µM [inhibitor, partial curve, poor fit] | –
16 | COc1cn(-c2ccccc2)nc1C(=O)OCC(=O)NC1CCCC1 | inactive | –
17 | CCOc1ccc(NC(=O)CSc2nc3c(oc4ccccc43)c(=O)n2CCOC)cc1 | inconclusive: 112 µM [inhibitor, partial curve, poor fit] | –
18 | COc1ccc(Oc2ncc3nc(-c4ccc(F)cc4)c(=O)n(C)c3n2)cc1 | inconclusive: 15.8 µM [inhibitor, single point] | –
19 | CCn1c(/C=C/Nc2ccccc2)[n+](CC)c2ccc(C(=O)OCC(F)(F)F)cc21 | inconclusive: 100 µM [inhibitor, partial curve, poor fit] | –
20 | Cc1cccc(-n2c(CNC(=O)c3ccc(S(=O)(=O)N4CCCC4)cc3)n[nH]c2=S)c1 | inconclusive: 44.7 µM [inhibitor, partial curve, poor fit] | –
21 | Cc1ccc(NC(=O)C(Cc2c[nH]c3ccccc23)NC(=O)OCC(C)C)cc1 (configuration not stated) | inconclusive: 44.7 µM [inhibitor, partial curve, poor fit] | –

Some of the entries so far, with tabs:
Row	Structure (SMILES)	Potency	activity change, negative = inhibition
11	Cn1c(=O)[nH]c(=O)c2c1nc(CN1CCN(Cc3ccccc3)CC1)n2CCCO	inconclusive: 39.8 µM [inhibitor, partial curve, poor fit]	–
12	O=C(CSc1ccccc1)Nc1ccc(-c2nc3ccccc3[nH]2)cc1	inactive	–
13	CC(C(=O)NCC1CCCO1)N(C(=O)c1snc(C(N)=O)c1N)c1cccc(F)c1 (configuration not stated)	inactive	–
14	OC1(CN2CCN(c3nccs3)CC2)CNCCOC1 (configuration not stated)	active: 10 µM	–
15	COc1ccc(C(=O)N=S2CCN(C(=O)c3ccc(Cl)cc3)CC2)cc1	inconclusive: 100 µM [inhibitor, partial curve, poor fit]	–
16	COc1cn(-c2ccccc2)nc1C(=O)OCC(=O)NC1CCCC1	inactive	–
17	CCOc1ccc(NC(=O)CSc2nc3c(oc4ccccc43)c(=O)n2CCOC)cc1	inconclusive: 112 µM [inhibitor, partial curve, poor fit]	–
18	COc1ccc(Oc2ncc3nc(-c4ccc(F)cc4)c(=O)n(C)c3n2)cc1	inconclusive: 15.8 µM [inhibitor, single point]	–
19	CCn1c(/C=C/Nc2ccccc2)[n+](CC)c2ccc(C(=O)OCC(F)(F)F)cc21	inconclusive: 100 µM [inhibitor, partial curve, poor fit]	–
20	Cc1cccc(-n2c(CNC(=O)c3ccc(S(=O)(=O)N4CCCC4)cc3)n[nH]c2=S)c1	inconclusive: 44.7 µM [inhibitor, partial curve, poor fit]	–

(next part)

Row | Structure (SMILES) | Potency | activity change, negative = inhibition
22 | c1ccc(CN(Cc2ccco2)C(c2ccncc2)c2nnnn2C2CCCC2)cc1 (configuration not stated) | inconclusive: 28.2 µM [inhibitor, partial curve, poor fit] | –
23 | CCOc1cc(/C=C/C(=O)c2ccc(C#N)cc2)cc(Cl)c1OC | inconclusive: 44.7 µM [inhibitor, partial curve, poor fit] | –
24 | Cc1cc2c(=O)n(C)c(SCC(=O)Nc3ccccc3)nc2s1 | inactive | –
25 | COc1ccc(CNc2ncnc3c2CN(C2CCCNC2)C(=O)CN3C)cc1 (configuration not stated) | – | inactive: -22.1% [at 6.33 µM]
26 | CCOc1ccc(NC(=O)CSc2nc(NS(=O)(=O)c3ccc(C)cc3)cc(=O)[nH]2)cc1 | inactive | –
27 | CC(NCC1(N2CCOCC2)CCCCC1)C(=O)N1CCc2ccccc21 (configuration not stated) | inconclusive: 0.631 µM [inhibitor, full curve, poor fit] | –
28 | CCOc1ncccc1C(=O)N1CCN(CC(=O)Nc2ccccc2Cl)CC1 | inactive | –
29 | CC(=O)N1C(NC2CCCCC2)CC(C)N1c1ccccc1 (configuration not stated) | inconclusive: 35.5 µM [inhibitor, partial curve, poor fit] | –
30 | Oc1ccc(-c2nc(C3CC3)nc3c2CN(Cc2ccc(OC(F)(F)F)cc2)CC3)cc1 | inconclusive: 25.1 µM [inhibitor, full curve, poor fit] | –
31 | C[C@H](CO)N1C[C@H](C)[C@@H](CN(C)C(=O)c2cnccn2)Oc2cc(C#CCC3CCCC3)ccc2S1(=O)=O | active: 35.5 µM | –
32 | Nc1ccc2oc3ccc(N)cc3c(=O)c2c1 | inactive | –
33 | OC(CC#CCN1CCCCCC1)(c1ccccc1)c1ccc(-c2ccccc2)cc1 (configuration not stated) | active: 17.8 µM | –
34 | COc1ccc(NC(=O)CCS(=O)(=O)c2ccc(OC)cc2)cc1 | inconclusive: 50.1 µM [inhibitor, partial curve, poor fit] | –
35 | CSc1cccc(NC(=O)C2CCN(C(=O)c3cnn(-c4ccccc4)c3-n3cccc3)CC2)c1 | inconclusive: 100 µM [inhibitor, partial curve, poor fit] | –
36 | COc1ccc2oc(-c3ccc(C)c(NC(=O)COc4cc(C)cc(C)c4)c3)nc2c1 | inconclusive: 158 µM [inhibitor, partial curve, poor fit] | –
37 | CN(C(=O)c1ccc(NC(=O)Cc2ccc(NC(=O)C3CCN(C(=O)C4CCCC4)CC3)cc2)cc1)C1CCCC1 | inconclusive: 31.6 µM [inhibitor, single point] | –
38 | CCOc1ccc(Nc2oc(-c3ccc(OCC)cc3)nc2C#N)cc1 | inactive | –
39 | O=C1CN(c2ccc(Cl)cc2)C(=O)CN1NC(=S)Nc1ccc(Cl)cc1 | inconclusive: 28.2 µM [inhibitor, partial curve, poor fit] | –
40 | O=C(Cc1ccc([N+](=O)[O-])cc1)c1ccccc1 | inconclusive: 8.91 µM [inhibitor, full curve] | –
41 | COC(=O)C1CN(Cc2ccc(F)cc2)CCS(=O)(=O)N1Cc1cn(Cc2ccccc2)nn1 (configuration not stated) | inconclusive: 31.6 µM [inhibitor, partial curve, poor fit] | –
42 | CCN(C(=O)CN1C(=O)S/C(=C\C=C\c2ccccc2)C1=O)C1CCS(=O)(=O)C1 (configuration not stated) | inactive | –
